Results published in PubChem BioAssay AID2718 (Broad Institute, 2010).
Out of some 320,000 compounds screened, about 480 (0.15%) were called active. Inconclusive means that the source gave no clear call. Such entries were picked first, then a sample of the others. Cut-off read from the data, not from the text of the source: active = inhibition above about 26% (passing the limit was not always enough); inconclusive = no clear call, values can overlap the other calls.

Protein sequences, listed by entry. Tags and fused reporters are not part of them. Lines headed by an entry give the natural chain unless they say otherwise; changes in a name come on top.
UniProt O15379: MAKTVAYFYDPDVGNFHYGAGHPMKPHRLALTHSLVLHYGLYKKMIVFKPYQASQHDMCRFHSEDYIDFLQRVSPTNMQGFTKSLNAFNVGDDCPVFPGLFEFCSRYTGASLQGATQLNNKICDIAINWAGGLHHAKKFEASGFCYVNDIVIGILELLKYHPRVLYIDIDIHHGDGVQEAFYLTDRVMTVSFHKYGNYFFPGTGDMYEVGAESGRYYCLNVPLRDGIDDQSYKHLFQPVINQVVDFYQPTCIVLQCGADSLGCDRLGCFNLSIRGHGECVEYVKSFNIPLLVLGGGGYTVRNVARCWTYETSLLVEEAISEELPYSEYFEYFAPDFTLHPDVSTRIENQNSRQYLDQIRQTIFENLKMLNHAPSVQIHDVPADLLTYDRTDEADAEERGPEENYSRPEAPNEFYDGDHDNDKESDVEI

Target: Histone deacetylase 3 (Homo sapiens) (UniProt O15379)
Assay: HDAC3 deacetylase inhibitors, primary screen, biochemical, fluorescence, cell-free homogeneous (AID 2718)
Conditions: recombinant HDAC3, fluorogenic peptide/trypsin coupled, at 8.3 µM, active compounds read high

Compound | inhibition
COCCOC(=O)c1c(C)n(C)c2ccc(OC(=O)N3CCOCC3)cc12 | inactive: -1.56%
O=C(/C=C/c1cccs1)Nc1cccnc1 | inactive: 9.83%
CCOC(=O)C1CCCCN1Cc1cc(Cl)ccc1O (stereo not given) | inconclusive: 25.7%
Fc1ccc(NC(=S)N2CCCC(c3ccccc3)=N2)cc1 | inconclusive: 16.5%
CCCOC(=O)c1ccc(NC(=O)c2c(Cl)ccc(Cl)c2OC)cc1 | inconclusive: 23.3%
O=C(Oc1oc(-c2ccco2)nc1C=Nc1ccccc1)c1ccco1 | active: 89.7%
Cc1cc(C)cc(NC(=S)N2CCC(NC(=O)c3ccccc3C)CC2)c1 | inconclusive: 14.3%
CC(C)c1ccc2c(c1)c(SC(C)(C)C)c(CC(C)(C)C(=O)O)n2Cc1ccc(Cl)cc1 | inconclusive: 22.1%
C/C(=N\NC(=S)NC(C)C)c1ccccc1OC(F)F | inconclusive: 15.1%
CCCCNc1nc(N)nc(-c2cc(Cl)ccc2O)n1 | inconclusive: 23.2%
O=C(Oc1cccccc1=O)c1ccccc1 | inconclusive: 29.2%
CCO[C@@H]1OC(C(=O)NCc2ccccc2)=C[C@H](c2ccc(C(F)(F)F)cc2)[C@H]1CCCO | inconclusive: 22.9%
O=C(c1ccc(S(=O)(=O)Cc2ccccc2Cl)c([N+](=O)[O-])c1)N1CCOCC1 | inconclusive: 21.7%
COc1cc(NC(=O)N2c3ccccc3Sc3ccccc32)c(C(=O)O)cc1OC | inconclusive: 24.4%
O=C(N/N=C/c1ccco1)c1[nH]ncc1Br | inconclusive: 16.9%
c1cn2c(NC3CCCCC3)c(-c3ccc(SC4CCCCC4)cc3)nc2cn1 | inactive: 2.17%
COc1cc(/C=C/C(=O)O)ccc1OCc1ccc([N+](=O)[O-])cc1 | inconclusive: 21.8%
Cc1cccc(C)c1OCC(=O)Nc1ncn[nH]1 | inactive: -2.23%
CC(=O)N(c1nc(/C=C\C(=O)O)cs1)c1ccccc1F | inactive: -1.08%
O=C(CSc1nc2scc(-c3ccco3)c2c(=O)n1-c1ccccc1)N1CCOCC1 | inconclusive: 20.6%
Cc1ccc(S(=O)(=O)Nc2nsc(N)n2)cc1 | inconclusive: 22.2%
CCCOc1ccccc1-c1nc2c([nH]1)c(=O)[nH]c(=O)n2C | inactive: -5.25%
CCc1nc2c(c(=O)[nH]1)C1(CCCC1)Cc1ccccc1-2 | inconclusive: 28.6%
CCN1/C(=C/C=C/C=C/c2sc3ccccc3[n+]2CC)Sc2ccccc21 | active: 36%
CC1CCC(NC(=O)CCS(=O)(=O)c2ccc3c(c2)CCN3C(=O)C2CC2)CC1 (stereo not given) | inconclusive: 18.8%
COc1ccc(/C=N/NC(=S)Nc2cccc(C(=O)O)c2)cc1 | inactive: 8.6%
C[C@H](C(=O)C=[N+]=[N-])N1C(=O)c2ccccc2C1=O | inconclusive: 12.9%
O=C(NCc1nc2ccccc2[nH]1)C1=C[C@H](c2ccc(C(F)(F)F)cc2)C[C@H](OCc2ccc(CO)cc2)O1 | inconclusive: 14.3%

As a short view, 3 of the compounds above:
Compound | inhibition
O=C(Oc1oc(-c2ccco2)nc1C=Nc1ccccc1)c1ccco1 | active: 89.7%
Cc1cc(C)cc(NC(=S)N2CCC(NC(=O)c3ccccc3C)CC2)c1 | inconclusive: 14.3%
CC(C)c1ccc2c(c1)c(SC(C)(C)C)c(CC(C)(C)C(=O)O)n2Cc1ccc(Cl)cc1 | inconclusive: 22.1%

Continuation.

Compound | inhibition
CCOC(=O)C1C(C#N)=C(N)OC(C)=C1c1ccncc1 (stereo not given) | inconclusive: 24.8%
CCOC(=O)c1sc(NC(=O)C(CC)Sc2nccn2C)nc1C (stereo not given) | inconclusive: 16%
CC(/C=N/NC(=O)Cn1cnc2c1c(=O)n(C)c(=O)n2C)=C\c1ccco1 | inconclusive: 16.5%
O=C1N=C(N2CCC(Cc3ccccc3)CC2)S/C1=C/c1cn[nH]c1-c1ccccc1 | inactive: -1.1%
C=CC[C@H](CC(=O)N(CCO)Cc1ccccc1)C(=O)N[C@H](COC(=O)[C@@H](CC=C)CC(=O)OC(C)(C)C)Cc1ccccc1 | active: 29.6%
Cc1cc(C(=O)CSc2nnc(-c3ccncc3)n2-c2ccccc2)c(C)n1C | inconclusive: 24.4%
Cc1ccc(C(=O)n2nc(-c3ccco3)nc2N)cc1 | active: 39.8%
Nc1ccn([C@@H]2O[C@H](CO)[C@@H](O)[C@@H]2O)c(=O)n1 | inactive: 1.35%
O=C(NCCCN1CCOCC1)C(=O)N/N=C/c1ccc(F)cc1 | inconclusive: 26.7%
O=C(CSc1ccncc1)Nc1ccc2ccccc2c1 | inconclusive: 16.3%
COc1ccccc1-c1nnc(SCC(=O)c2c(N)n(C3CC3)c(=O)[nH]c2=O)o1 | inactive: -5.29%
CCOc1ccc(-n2c(-c3ccc(Cl)cc3)c[n+]3c2SCC3)cc1 | inactive: 9.77%
C#CCOCCOCCOCCNc1nc(N2CCN(C(=O)CCCCCCCCCCNC(=O)[C@H](CCCCN)n3cc(C[C@@H](C)CC)nn3)CC2)nc(N2CCN(C(=O)CCCCCCCCCCNC(=O)[C@H](CCCCN)n3cc(C[C@@H](C)CC)nn3)CC2)n1 | active: 53.3%
COc1cccc(CN(C)CC(=O)NC(=O)NCc2ccco2)c1 | inconclusive: 16.9%
CCCc1cc(Nc2cccc(OC)c2)n2ncnc2n1 | inactive: 0.44%
Cc1cccc(OCC(=O)Nc2ccc3c(c2)C(=O)NC3=O)c1 | inconclusive: 20.4%
CC(=O)NC1C(=O)N(CCN2CCOCC2)c2ccc(C)cc21 (stereo not given) | inactive: -9.42%
COc1ccc(C(=O)/C=C/c2ccc(N(C)C)cc2)c(OC)c1 | inactive: 13.1%
O=C(CSC1=NCCN1)NC(c1ccccc1)c1ccccc1 | inactive: 2.54%
CC(NC(=O)C1CCN(S(=O)(=O)N2CCCCCC2)CC1)c1ccccc1 (stereo not given) | inconclusive: 14.4%
COc1ccc(C2=CN(Cc3ccccc3)C(c3ccccc3)CC2=O)cc1 (stereo not given) | inconclusive: 14.9%
O=C(/C=C/c1ccc(Br)cc1)N1CCN(c2cccc(C(F)(F)F)c2)CC1 | inactive: -8.11%
COc1ccc(N(CC(=O)NC2CCCC2)C(=O)CCC(=O)Nc2cc(C)on2)c(OC)c1 | inconclusive: 14.9%
O=C(O)CCCCc1nc2ccccc2s1 | inconclusive: 15.8%
CC1=NN(c2ccc(C(=O)O)cc2)C(=O)/C1=C\c1ccc(OC(=O)c2cccs2)cc1 | inconclusive: 26.3%
COC(=O)c1ccc(CN2CCCC(CCC(=O)NCc3ccc(C)o3)C2)cc1 (stereo not given) | inconclusive: 24.2%
C=CCn1c(O)c(C(CC)=Nc2ccccc2NC(=O)CC)c(=O)[nH]c1=O | inconclusive: 27.2%
